Paper PMC7819943, “Rice protein-binding microarrays: a tool to detect cis-acting elements near promoter regions in rice”
This is one part of the list.

Protein sequences, listed by entry. Tags and fused reporters are not part of them.
UniProt Q0JBA9, entry or part of it: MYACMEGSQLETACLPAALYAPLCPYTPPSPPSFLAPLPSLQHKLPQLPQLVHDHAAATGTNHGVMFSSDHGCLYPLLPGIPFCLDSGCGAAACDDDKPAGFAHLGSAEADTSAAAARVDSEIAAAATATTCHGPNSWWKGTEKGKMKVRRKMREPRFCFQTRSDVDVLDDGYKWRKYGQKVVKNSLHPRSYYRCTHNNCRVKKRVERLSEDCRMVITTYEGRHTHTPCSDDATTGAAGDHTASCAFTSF

The sequences below were run against OsWRKY34 (Oryza sativa, UniProt Q0JBA9 1-250) (assay: protein-binding microarray (RPBM); PBS, 2% BSA, 51.3 ng/ul salmon testes DNA, 50 uM zinc acetate, 200 nM TF, 25 C, 1 h; high values mean tight binding). Conditions: protein: recombinant; tags: N-terminal polyhistidine and DsRed monomer fusion (pET32a); label: CyDye5-dUTP incorporated in the synthesized complementary strand; 3' TTTTT single-stranded linker to array surface; dsDNA, one strand shown.
In short: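 A custom Agilent array was converted to double-stranded form by primer extension with Cy5-dUTP and blocked with 2% BSA. Protein at 200 nM in PBS with 2% BSA, salmon testes DNA and 50 µM zinc acetate was applied for 1 h at 25 °C, followed by washing. The proteins were polyhistidine–DsRed N-terminal fusions of transcription factors, expressed in E. coli BL21-CodonPlus and Ni–NTA-purified. The binding signal is per-feature fluorescence intensity (arbitrary units) from an Axon 4000B scanner.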

Sequence	binding signal
CGTGGTGTAAATGTACGTATATCTGCTCTTTCGCTGTACGCGGAGTCACCTAGTGCAG	8130 fluorescence intensity (a.u.)
GGCCCCACGTTACCCTTTCGCGCACACGTGTCCCCTATCACGGAGTCACCTAGTGCAG	10200 fluorescence intensity (a.u.)
ACTGTCTATGTCTCAATTCATACTATTATATTCTATGCTCCGGAGTCACCTAGTGCAG	9130 fluorescence intensity (a.u.)
GATTCACTATTGTGAGTTAAATCCTGTACTTTTTGCTGATCGGAGTCACCTAGTGCAG	8320 fluorescence intensity (a.u.)
TGCACCATCCATTCCTCATCGGATGCCTTCACGCCGCCACCGGAGTCACCTAGTGCAG	8580 fluorescence intensity (a.u.)
ATATCTTGTTTATGCAGTTCAGCCTTTCAGGGGTTATCCTCGGAGTCACCTAGTGCAG	9060 fluorescence intensity (a.u.)
ACGTTCAATCCTCAACATGCTCACAATTTCTTCTTAAAAACGGAGTCACCTAGTGCAG	8510 fluorescence intensity (a.u.)
TCTAAATTGTATTTCTATATAGACTCTGCATTTTCTTTTTCGGAGTCACCTAGTGCAG	11600 fluorescence intensity (a.u.)
GGGTTGTGGAGTGTAGTTTCTATTGTGATGTCTTATTGACCGGAGTCACCTAGTGCAG	11200 fluorescence intensity (a.u.)
AACTCTCCAGTCTCCACCCACCTCACTCCACAGTCCACACCGGAGTCACCTAGTGCAG	9640 fluorescence intensity (a.u.)
CCGTCTGCTACGTTAGCTTGCCGCCCTCCGTTAGGCGGCACGGAGTCACCTAGTGCAG	9150 fluorescence intensity (a.u.)
CGCCGCCCTCGACTGCCGCTCCCGTCGTCCCAACCCACCGCGGAGTCACCTAGTGCAG	8790 fluorescence intensity (a.u.)
CTGACTGGGTGCAGCATATGCTTTTTCTAACGTTGGGCGTCGGAGTCACCTAGTGCAG	8670 fluorescence intensity (a.u.)
CACCATCTCACACACACCACGCCACAATATTCTTTGCATCCGGAGTCACCTAGTGCAG	9620 fluorescence intensity (a.u.)
GCCACAGCGCGCGCGACCACGTCTCGGTCTCTCACGCCGTCGGAGTCACCTAGTGCAG	8600 fluorescence intensity (a.u.)
ATGGGTATGTTTAATTTGCTGGAGTTTTAGATATTCCAGACGGAGTCACCTAGTGCAG	9800 fluorescence intensity (a.u.)
TTTTACCCCGTTTTCGCTAATTAATTCTGTATTTATGGCACGGAGTCACCTAGTGCAG	8120 fluorescence intensity (a.u.)
TCTGATCCCACCTGTCATACACGTATTGTGTCTTGGAGTCCGGAGTCACCTAGTGCAG	10600 fluorescence intensity (a.u.)
TTCCTCGTGATTCGTGAACTATTCTGCCCATGTTTTCTATCGGAGTCACCTAGTGCAG	9440 fluorescence intensity (a.u.)
TCTCCATTCTCATTCCCAATCCATCTACATTTCCTAAGTACGGAGTCACCTAGTGCAG	9160 fluorescence intensity (a.u.)
ATTTAGCTACACTATGCAGTCTGGCCCATTTTCTTTCGCCCGGAGTCACCTAGTGCAG	11200 fluorescence intensity (a.u.)

Shown in CSV form: part of the list above
Sequence,binding signal
ATGGGTATGTTTAATTTGCTGGAGTTTTAGATATTCCAGACGGAGTCACCTAGTGCAG,9800 fluorescence intensity (a.u.)
TTTTACCCCGTTTTCGCTAATTAATTCTGTATTTATGGCACGGAGTCACCTAGTGCAG,8120 fluorescence intensity (a.u.)

(further entries)

Sequence	binding signal
CGGGTGGGTCGTAAAGGAGTACAGCGACGGTGTTTGACAGCGGAGTCACCTAGTGCAG	8320 fluorescence intensity (a.u.)
AGTTTCTTTTTTTTGGTCCTTTTTAGCGTGTTGTTAATCTCGGAGTCACCTAGTGCAG	13100 fluorescence intensity (a.u.)
TGGGGTGGTGTGTTGATGCGGCGGGATTCGAGCCCTGGCCCGGAGTCACCTAGTGCAG	8560 fluorescence intensity (a.u.)
GCCCGTAGCATACCACCCCATCATCGCTACCGCCGATTTCCGGAGTCACCTAGTGCAG	9610 fluorescence intensity (a.u.)
GCCGCCTCCTAGTGCTTCCTCTATCGCCCATCATTTCCGTCGGAGTCACCTAGTGCAG	8400 fluorescence intensity (a.u.)
GATCCGTTTTATGTGTTTGGGGAGAGAGTTTCCCAACTTCCGGAGTCACCTAGTGCAG	8880 fluorescence intensity (a.u.)
ACCATCTTATTTAACGTAAAATATTTAATTTTCATTTTTACGGAGTCACCTAGTGCAG	8480 fluorescence intensity (a.u.)
CATTCTGTACATCCAGTGTCTCTCAGCATATCCTTCAGAACGGAGTCACCTAGTGCAG	8420 fluorescence intensity (a.u.)
AATCACGTGATTATTTTAGCAACCTCATTTTTTTTCTTTTCGGAGTCACCTAGTGCAG	8930 fluorescence intensity (a.u.)
GCCTTCGATTCTGCCCCACCGCGCCCACTGCTAACTCCGACGGAGTCACCTAGTGCAG	10700 fluorescence intensity (a.u.)
GCTTTGGTCGTGGCGGTGGTGGCGCATTCGGTGGTGGCGCCGGAGTCACCTAGTGCAG	12500 fluorescence intensity (a.u.)
TACACACTACATACTCCATCGTTCGTTCTTCAGAGAGTACCGGAGTCACCTAGTGCAG	8320 fluorescence intensity (a.u.)
GCCTCGTCCACTCCACCACGCCGCCGAAAGCCGCAACTCTCGGAGTCACCTAGTGCAG	9580 fluorescence intensity (a.u.)
ACATCAAAACCACCATAAGCTCTATGTTGCACTTTTAACACGGAGTCACCTAGTGCAG	8180 fluorescence intensity (a.u.)
CCATCACCATCTGTTCTAGTACTGTATTTGGTTCAGAGAACGGAGTCACCTAGTGCAG	8940 fluorescence intensity (a.u.)
GATTGGCGTCCGCTTCTATTCATAGGTTTGCCGTCGGACGCGGAGTCACCTAGTGCAG	8360 fluorescence intensity (a.u.)
CTGGCGCGCAGAACCGTTTGTTTCCGCCCTCTCTTTTTTCCGGAGTCACCTAGTGCAG	8670 fluorescence intensity (a.u.)
GAGACTTTGCACGCTTAAGCCTTAAGCTTCTACTACCATTCGGAGTCACCTAGTGCAG	10100 fluorescence intensity (a.u.)
TAGTATATACATGGGTGTTTGGGAGAGAGGGGCTAAACTTCGGAGTCACCTAGTGCAG	9540 fluorescence intensity (a.u.)
ACCCTGCCATTACGCATCTCAACACACCATTAGTCCAGTCCGGAGTCACCTAGTGCAG	9540 fluorescence intensity (a.u.)
CCCGCTCGCTCTCGTGCTGTCCGCCGACCTCAGCTCGCTCCGGAGTCACCTAGTGCAG	10000 fluorescence intensity (a.u.)
